In test [1] the target is T1, Osteomodulin (OMD), human, recombinant with C-terminal FLAG-tag (human) (UniProt Q99983).
T1 sequence: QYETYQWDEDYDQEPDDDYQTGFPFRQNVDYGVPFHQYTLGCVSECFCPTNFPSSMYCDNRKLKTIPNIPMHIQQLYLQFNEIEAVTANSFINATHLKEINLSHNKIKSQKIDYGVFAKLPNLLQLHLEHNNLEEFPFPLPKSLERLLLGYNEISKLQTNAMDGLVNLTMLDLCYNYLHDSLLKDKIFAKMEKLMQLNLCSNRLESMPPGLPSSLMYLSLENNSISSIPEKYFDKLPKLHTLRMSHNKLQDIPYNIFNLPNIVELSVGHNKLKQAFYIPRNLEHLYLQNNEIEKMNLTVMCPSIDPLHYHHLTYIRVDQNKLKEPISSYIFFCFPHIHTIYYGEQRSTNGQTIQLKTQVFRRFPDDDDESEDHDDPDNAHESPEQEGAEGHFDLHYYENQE
Description: SPR; OMD immobilised at around 3000 RU; collagen (0.125-3.5 µM) injected; both purified.

Protein sequences, listed by entry. Tags and fused reporters are not part of them. Lines headed by an entry give the natural chain unless they say otherwise; changes in a name come on top. Residues count along the entry.
UniProt P07585, residues 31-359: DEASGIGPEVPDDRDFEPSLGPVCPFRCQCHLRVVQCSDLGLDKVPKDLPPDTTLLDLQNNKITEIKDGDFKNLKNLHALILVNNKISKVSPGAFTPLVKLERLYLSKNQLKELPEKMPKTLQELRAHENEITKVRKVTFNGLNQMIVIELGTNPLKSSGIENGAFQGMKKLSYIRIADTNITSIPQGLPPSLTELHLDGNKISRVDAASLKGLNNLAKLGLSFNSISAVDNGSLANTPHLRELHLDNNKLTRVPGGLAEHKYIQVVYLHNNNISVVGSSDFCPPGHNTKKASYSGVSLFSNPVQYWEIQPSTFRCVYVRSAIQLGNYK
UniProt P02452: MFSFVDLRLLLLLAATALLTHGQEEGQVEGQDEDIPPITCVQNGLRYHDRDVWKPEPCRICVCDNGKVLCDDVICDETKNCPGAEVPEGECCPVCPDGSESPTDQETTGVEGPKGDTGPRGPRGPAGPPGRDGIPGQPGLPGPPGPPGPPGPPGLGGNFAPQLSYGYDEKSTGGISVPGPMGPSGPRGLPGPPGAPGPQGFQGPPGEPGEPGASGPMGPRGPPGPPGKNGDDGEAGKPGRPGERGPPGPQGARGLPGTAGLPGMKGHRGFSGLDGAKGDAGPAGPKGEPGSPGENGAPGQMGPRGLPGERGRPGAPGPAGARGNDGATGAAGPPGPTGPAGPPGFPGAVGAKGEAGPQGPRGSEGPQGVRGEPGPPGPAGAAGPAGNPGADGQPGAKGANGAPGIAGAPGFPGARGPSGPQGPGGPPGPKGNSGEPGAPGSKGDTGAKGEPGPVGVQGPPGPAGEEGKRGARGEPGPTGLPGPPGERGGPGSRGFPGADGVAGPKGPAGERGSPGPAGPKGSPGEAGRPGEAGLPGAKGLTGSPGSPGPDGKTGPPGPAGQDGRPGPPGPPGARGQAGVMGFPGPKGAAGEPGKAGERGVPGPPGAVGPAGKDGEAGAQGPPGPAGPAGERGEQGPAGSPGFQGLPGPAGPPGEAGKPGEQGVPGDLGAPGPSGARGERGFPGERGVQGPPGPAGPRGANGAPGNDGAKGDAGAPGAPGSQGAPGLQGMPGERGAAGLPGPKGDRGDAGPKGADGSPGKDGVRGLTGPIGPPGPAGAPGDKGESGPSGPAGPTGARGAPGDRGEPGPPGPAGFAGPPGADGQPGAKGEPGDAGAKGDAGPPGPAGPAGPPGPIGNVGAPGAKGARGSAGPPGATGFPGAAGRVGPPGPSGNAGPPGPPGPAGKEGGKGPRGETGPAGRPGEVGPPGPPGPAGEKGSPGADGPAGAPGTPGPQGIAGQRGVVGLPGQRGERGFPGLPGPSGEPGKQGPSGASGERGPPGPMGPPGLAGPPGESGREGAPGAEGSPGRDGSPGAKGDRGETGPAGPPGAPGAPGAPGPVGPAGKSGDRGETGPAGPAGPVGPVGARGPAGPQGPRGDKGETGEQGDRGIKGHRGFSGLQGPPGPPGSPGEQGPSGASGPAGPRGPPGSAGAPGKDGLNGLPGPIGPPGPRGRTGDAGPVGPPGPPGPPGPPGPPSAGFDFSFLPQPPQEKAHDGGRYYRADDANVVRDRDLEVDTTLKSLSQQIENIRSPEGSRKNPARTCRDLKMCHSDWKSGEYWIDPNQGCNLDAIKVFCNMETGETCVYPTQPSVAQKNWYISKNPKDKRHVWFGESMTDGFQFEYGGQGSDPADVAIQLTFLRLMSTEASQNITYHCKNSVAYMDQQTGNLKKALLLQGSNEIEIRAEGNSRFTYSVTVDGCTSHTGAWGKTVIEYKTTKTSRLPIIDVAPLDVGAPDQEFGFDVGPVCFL

The target in test [2] is Decorin (DCN), human full-length, recombinant (human) (UniProt P07585). Description: SEC-MALS; room temperature, PBS pH 7.4, proteins at 25 µM loaded on Superdex 200; both purified.
Test [3] concerns the target T1, Osteomodulin (OMD), human, recombinant with C-terminal FLAG-tag (human). Description: crystal structure; OMD 9.9 mg/ml, 200 mM ammonium phosphate dibasic, 24% PEG 3350, 20 °C; contacts between chains in the crystal judged with the PISA server; both purified.
For test [4], the target named is T2, Type-I collagen (VitroCol, human) (human, UniProt P02452 162-1218; P08123 80-1119). Kind of test: immunoelectron microscopy; collagen incubated 0 min, 10 min or 12 h at 37 °C in PBS pH 7.4, adsorbed on Ni grid; OMD put on the grids 30 min at room temperature; detected with anti-OMD mouse antibody and 5-nm gold anti-mouse IgG; both purified.
The target in test [5] is T1, Osteomodulin (OMD), human, recombinant with C-terminal FLAG-tag (human). Kind of test: SEC-MALS; room temperature, PBS pH 7.4, proteins at 25 µM loaded on Superdex 200; both purified.
In test [6] the target is T2, Type-I collagen (VitroCol, human). Kind of test: SPR; collagen immobilised on CM5 chip at around 8000 RU; OMD or muteins injected (0.125-2 µM), 30 µl/min; PBS pH 7.4, 0.005% Tween-20, 20 °C; KD by steady state analysis; binding response at 2 µM; both purified.

This passage reports binding results from paper PMC6123635, “Molecular basis for governing the morphology of type-I collagen fibrils by Osteomodulin” (Communications Biology, 2018).

Residue numbers refer to the chain shown, from its start. In names and notes the source's numbering stands. These are yes or no findings as the source states them, for the method shown. Some results given as binding are weak or reduced against the parent protein; the word gives no strength. For part of these data: Tags and fused reporters may be left off the sequences shown.

Take “Type-I collagen (VitroCol, human) (from UniProt P02452 162-1218; P08123 80-1119) (complex)”: in test [1], the binding entry is reported as “binds”. Turning to “Decorin (DCN), human full-length, recombinant (from UniProt P07585 31-359)”, in test [2], the binding entry is on record as “binds”.

B1: Osteomodulin (OMD), human, recombinant with C-terminal FLAG-tag (natural protein, UniProt Q99983 21-421, looked up)
chain: T1 sequence
notes: osteomodulin (OMD), human, without residues 1-20 (signal peptide), residues 21-421; Its own signal peptide was replaced by the sp1-2 signal peptide for secretion; Carbohydrate is modelled in the crystal structure; Monomer by SEC-MALS; also called full-length OMD; WT OMD; source: Sf9 cells, baculovirus, secreted; not shown: FLAG, C-terminal, kept
On to B1, for which the values for the binding result in test [3], in test [4] and in test [5] were “no binding (tested: 9.9 mg/ml)”, “binds” and “no binding (tested: 25 µM)”, respectively.

B2: OMD E284R/E303R (double mutant in the construct of full-length OMD) (natural protein, human, UniProt Q99983 21-421, looked up)
chain: T1 sequence with E264R, E283R
Regarding B2, the binding entry in test [6] is given as “no binding (tested: 2 µM)”.
